Experimental data taken from PubChem BioAssay AID493014 (National Center for Advancing Translational Sciences (NCATS), 2011).
This is one part of the list. The main result of the screen is listed elsewhere. These columns were measured beside it and carry no call. Compounds called inactive in the main read-out are mostly missing here. Words in brackets tell the shape of the fitted curve; partial curves, single points and poor fits give uncertain potencies.

Assay: qHTS Assay to Find Inhibitors of Chronic Active B-Cell Receptor Signaling
Conditions: ABC-DLBCL IkBa-CBG/CBR reporter, luminescence ratio (green luciferase fused to IkBa over red control in TMD8 lymphoma cells), 4 h
Summary of the method: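 TMD8 human ABC-DLBCL cells with doxycycline-inducible IκBα–green luciferase fusion and unfused red luciferase, in 0.5% FBS medium; compounds up to 46 uM, 4 h at 37C. Green/red luminescence ratio, filter-overlap corrected, fitted to concentration-response curves.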

[1] = measured here: CBR red luminescence, cell number
[2] = measured here: IkBa-CBG green luminescence

SMILES	AC50 [1]	AC50 [2]
CC1(C)CC(NC(=O)C2CCCCC2)CC(C)(C)N1	12.6 µM [falling, partial curve]	
CCCCn1nnc(NC(=O)c2ccc(-c3cccc(Cl)c3)o2)n1	35.5 µM [falling, single point]	
COc1ccc(C(=O)NCCSc2ccccc2)cc1	5.8 µM [rising, partial curve, poor fit]	
COc1ccc(NC2CC(=O)N(c3cccc([N+](=O)[O-])c3)C2=O)cc1 (centres undefined)	1 µM [rising, full curve, poor fit]	
Cc1occc1C(=O)N/N=C/c1ccc(OCc2ccccc2)cc1	11.2 µM [falling, partial curve]	
CCCCSc1nnc2c(n1)OC=Nc1ccccc1-2	11.2 µM [falling, partial curve]	
CCc1ccccc1NC(=S)NN	35.5 µM [falling, single point]	
C/C(=N\NC(=O)c1cccc(N/N=C(\C)c2ccc([N+](=O)[O-])cc2)c1)c1ccc([N+](=O)[O-])cc1	10 µM [falling, partial curve, poor fit]	
COc1cc(C2Nc3ccccc3C(=O)N2c2ccc3c(c2)OCCO3)ccc1OCC(C)C (centres undefined)	29.1 µM [falling, single point]	
COc1ccc(/C(N)=N/OC(=O)c2cccs2)cc1	35.5 µM [falling, single point]	
Nc1nnc(-c2ccccc2[N+](=O)[O-])o1	11.2 µM [falling, partial curve]	
COc1ccc(C(CC(=O)Nc2ccc(C)cn2)N2Cc3ccccc3C2=O)cc1 (centres undefined)	5.62 µM [rising, single point]	
COc1ccc2oc(C)c(C(=O)c3ccc(C)cc3)c2c1	11.2 µM [rising, single point]	
ClCc1csc(-c2ccc(Cl)cc2)n1	9.2 µM [rising, partial curve, poor fit]	
CC1CCCN(S(=O)(=O)c2ccc(NC(=O)CN3CCN(C)CC3)cc2)C1 (centres undefined)	35.5 µM [falling, partial curve, poor fit]	
CCOC(=O)Cc1csc(NC(=O)c2cc3ccccc3o2)n1	5.01 µM [falling, partial curve]	
Oc1c(C(c2ccc(Cl)cc2)N2CCCC2)cc(Cl)c2cccnc12 (centres undefined)	35.5 µM [falling, single point]	
COc1cc(OC)c(C2SCCS2)c(OC)c1	18.4 µM [rising, single point]	
CCN(c1ccccc1)S(=O)(=O)c1ccc(C(=O)NC2CCN(Cc3ccccc3)CC2)cc1	29.1 µM [rising, single point]	18.4 µM [falling, partial curve]
CCN(CC)c1nc(=S)nc(NC(C)(C)C)[nH]1	14.1 µM [rising, single point]	
COc1cccc(-c2nnc(-c3ccco3)o2)c1	29.1 µM [falling, single point]	
Nc1nc(NCc2ccc(Cl)cc2)nc(NCCO)c1[N+](=O)[O-]	2.82 µM [rising, partial curve, poor fit]	
COc1cccc(-c2[nH]nc3c2C(c2ccc(C)o2)C(C#N)=C(N)O3)c1 (centres undefined)	4.47 µM [falling, full curve]	

SMILES	AC50 [1]	AC50 [2]
CCOc1ccc(Br)cc1C(=O)N/N=C/c1cccnc1	35.5 µM [falling, single point]	
C=CCn1c(SCc2c(C)noc2C)nc2sc(C)c(C)c2c1=O	18.4 µM [rising, single point]	
O=C1C(C=NC2CC2)=C(O)c2ccccc21	29.1 µM [falling, single point]	
Clc1ccc(C#Cc2cccnc2)cc1	20.6 µM [rising, single point]	
O=C(COC(=O)c1ccc(F)c(S(=O)(=O)N2CCOCC2)c1)Nc1ccc2[nH]c(=O)[nH]c2c1	4.61 µM [rising, partial curve, poor fit]	
O=C(CS(=O)CC(=O)Nc1cnc2ccccc2c1)Nc1ccc(Cl)cc1 (centres undefined)	11.2 µM [falling, single point]	
Cc1c(N2C(=O)/C(=C\c3ccc(N(C)C)cc3)N(C)C2=S)c(=O)n(-c2ccccc2)n1C	29.1 µM [rising, single point]	
COc1ccc(CC(=O)NCc2ccc3c(c2)OCO3)cc1	0.13 µM [rising, full curve, poor fit]	
COc1ccc(C=O)cc1COc1ccc2c(c1)OCO2	25.9 µM [rising, single point]	18.4 µM [falling, single point]
COc1ccc(-c2csc(NC(=S)NC(=O)c3cc4ccccc4o3)n2)cc1Br	3.55 µM [rising, full curve, poor fit]	
CN(CC(=O)Nc1ccccc1Br)C(=O)c1cc2c(s1)CCCCC2	20.6 µM [falling, partial curve, poor fit]	
COc1cc(OC)c2c(-c3cccc(-c4ccoc4)c3)cc(=O)oc2c1		29.1 µM [falling, partial curve, poor fit]
Cc1nn(CC(=O)O)c(=O)c2ccccc12	2.31 µM [rising, partial curve, poor fit]	
COCc1cc(C)nc(OCC(=O)N/N=C/c2ccc(-c3cc([N+](=O)[O-])ccc3C)o2)c1C#N	0.092 µM [rising, full curve, poor fit]	
Fc1ccc(/C=N/NC(=S)Nc2ccc(Cl)cc2)cc1F	29.1 µM [rising, single point]	
C=CCNC(=O)c1onc(CSc2ccccc2)c1C(=O)O	11.2 µM [falling, partial curve]	
CCSc1nnc(CSc2ncccn2)n1C	0.562 µM [rising, full curve, poor fit]	
COC(=O)c1sccc1NC(=O)Nc1ccc(C)cc1	0.794 µM [falling, full curve]	
COc1c(C(=O)Nc2ccc(Cc3ccncc3)cc2)ccc2ccccc12	16.4 µM [falling, partial curve]	
O=C(Nc1cccc(S(=O)(=O)N2CCCC2)c1)c1cc(=O)[nH]c2ccccc12	23.1 µM [rising, partial curve]	
COC(=O)c1ccc(NC(=O)CCNS(=O)(=O)c2cccc3nonc23)cc1	3.26 µM [rising, single point]	
Cc1cc(C(=O)Nc2cnc3ccccc3c2)ccc1[N+](=O)[O-]	0.355 µM [rising, full curve, poor fit]	
c1cnc(N2CCN(Cc3c[nH]c4ccccc34)CC2)nc1	25.1 µM [rising, single point]	

SMILES	AC50 [1]	AC50 [2]
CCOC(=O)C1=C(CCc2ccccc2)NC(=O)NC1c1ccc2ccccc2c1 (centres undefined)	11.2 µM [falling, partial curve]	
C=CCn1c(O)c(N=Nc2ccccc2)c2ccccc21	7.08 µM [rising, full curve, poor fit]	
CCOc1cc2c3c(c1)C(C)=CC(C)(C)N3C(=O)C2=O	8.91 µM [rising, partial curve, poor fit]	
COc1ccc(NC(=O)COC(=O)[C@@H]2CCCN2S(=O)(=O)c2ccccc2F)c(OC)c1	3.55 µM [rising, partial curve]	
Cc1cc(-c2nc3ccccc3[nH]2)ccc1N	12.6 µM [falling, partial curve, poor fit]	
Fc1ccc(CSc2nc3ccccc3[nH]2)cc1	0.146 µM [rising, full curve, poor fit]	
Cc1c(NC2=C(Cl)C(=O)N(c3ccccc3)C2=O)c(=O)n(-c2ccccc2)n1C	23.1 µM [falling, single point]	
Cc1ccc(N(C(=O)c2ccccn2)C2(C(=O)NC3CCCC3)CCCCC2)cc1	0.411 µM [rising, partial curve, poor fit]	
CCn1cc(Cl)c(C(=O)Nc2ccccc2C(N)=O)n1	7.94 µM [rising, partial curve, poor fit]	
Cc1[nH]oc(=O)c1N=Nc1c(Cl)cccc1Cl	4.61 µM [rising, full curve, poor fit]	
CN1N=C2c3ccccc3CCC2C1c1ccc(Cl)cc1 (centres undefined)	11.2 µM [rising, partial curve]	
COc1ccc(-c2cc3ncnc(Cl)c3s2)cc1	35.5 µM [falling, single point]	
COc1cccc(CNCCc2c[nH]c3ccccc23)c1OCc1ccccc1	29.1 µM [falling, single point]	
Cc1ccc(-c2nnc(Sc3nc4ccccc4o3)c3ccccc23)cc1	2.82 µM [falling, full curve, poor fit]	
O=C(CSC1=Nc2ccccc2C2=NC(CC(=O)NC3CCCCC3)C(=O)N12)NCc1ccco1 (centres undefined)	12.6 µM [falling, partial curve]	
CC(C)c1ccc(NC2=CC(=O)CC(C)(C)C2)cc1	17.8 µM [rising, partial curve]	
N#CC(c1ccc(Cl)cc1)c1ccc(Cl)nn1 (centres undefined)	20.6 µM [falling, single point]	
CN(C(=O)c1cc2ccccc2cc1O)C1CCCCC1	0.355 µM [rising, full curve, poor fit]	
CSc1cccc(NC(=O)Nc2ccccc2)c1	7.31 µM [falling, partial curve, poor fit]	
C=CCNC(=O)/C=C/c1ccc(C(C)C)cc1	7.31 µM [rising, partial curve]	
O=C(N/N=C/c1cccc([N+](=O)[O-])c1)C1CC1c1ccccc1 (centres undefined)	6.51 µM [rising, full curve, poor fit]	
